Data from PubChem BioAssay AID651640 (Broad Institute, 2012).
Among all 350,000 compounds or so, about 6,000 (1.7%) were called active. Inconclusive results, whose numbers are uncertain, are shown with a selection of clear calls. No stated cut-off is given here; in the data, active means CPE inhibition above about 20% (passing the limit was not always enough); inconclusive means no clear call, values can overlap the other calls; tested in BHK-21 cells. More than one record can exist for a structure, and the calls need not agree.

test: protection of cells from dengue 2 killing – plate reader, single concentration, primary screen (AID 651640); details: DENV2-infected cells, cytopathic effect rescue, at 9.99 µM, hits give high values;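 further: 0% = median of neutral control wells and 100% = median of positive control wells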

SMILES	CPE inhibition
CCC(=O)Nc1ccc2c(c1)C(=O)N(C)[C@@H]1CC[C@H](CC(=O)O)O[C@H]1CO2	active: 24%
COc1ccc(C2=CN3CCCCC3CC2=O)cc1OC (stereo not drawn)	inconclusive: 29.3%
COCC(=O)N1CC2(C1)CN(C(=O)Cc1ccccc1)[C@@H](CO)c1c2c2ccc(OC)cc2n1C	inactive: -5.82%
C[C@H](O)C#Cc1cnc2c(c1)C(=O)N([C@@H](C)CO)C[C@@H](C)[C@H](CN(C)C(=O)c1ccncc1)O2	inactive: -10.6%
C[C@H](CO)N1C[C@H](C)[C@H](CN(C)C(=O)c2cnccn2)Oc2cc(C#CCC3CCCC3)ccc2S1(=O)=O	inconclusive: 24.9%
CN(Cc1ccccc1)C(=O)c1csc(COCCO)n1	inconclusive: 21.6%
OCCC1CN(Cc2cccc3c2OCO3)CCN1C1CCCC1 (stereo not drawn)	inconclusive: 42.7%
COc1ccc(-c2ccc(SCC(=O)Nc3cccc(C(C)=O)c3)nn2)cc1OC	inactive: 1.73%
CCn1c(NCCCO)nc2c(c1=O)C(C)(CC)Cc1ccccc1-2 (stereo not drawn)	inconclusive: 21.1%
O=C(Nc1ccc(Cl)c(Cl)c1)N[C@@H]1CC[C@H](CCn2cc(C3CCCC3)nn2)O[C@@H]1CO	active: 27.8%
CCOC(=O)c1ccccc1-n1c(C)cc(C2N=C(N)Nc3nc4ccccc4n32)c1C (stereo not drawn)	inactive: -0.875%
O=S(=O)(N[C@H]1CC[C@@H](CCn2cc(-c3ccccn3)nn2)O[C@H]1CO)c1cccc(F)c1	inconclusive: 46.8%
COc1cc(/C=C/C(=O)N(C)CC(=O)Nc2ccccc2SC)cc(OC)c1OC	inconclusive: 31.4%
C[C@H](CO)N1C[C@H](C)[C@@H](CN(C)S(=O)(=O)c2ccc(Cl)cc2)Oc2ccc(NC(=O)Nc3cccc4ccccc34)cc2CC1=O	active: 42.2%
C[C@H]1CN([C@@H](C)CO)C(=O)c2cc(NC(=O)Cc3cn(C)c4ccccc34)ccc2O[C@H]1CN(C)C(=O)Nc1ccc2c(c1)OCO2	active: 28.4%
CC(=O)N[C@@H](C)C(=O)N1CCC(n2nccc2NC(=O)CCCc2ccccc2)CC1	inconclusive: 32.4%
CC(=O)Nc1cccc(NC(=O)CCN2C(=O)c3ccccc3S2(=O)=O)c1	inactive: -8.35%
Cc1ccc(C)c(SCC(=O)NC2CCS(=O)(=O)C2)c1 (stereo not drawn)	inconclusive: 59.5%
COC(=O)C1CN(C(=O)C(C)Oc2ccc(C(C)C)cc2)c2ccccc2O1 (stereo not drawn)	inconclusive: 22.5%
Cc1cccc(OCC(=O)NNC(=O)C2CCCCC2C(=O)O)c1 (stereo not drawn)	active: 22.3%
N#Cc1ccc(-c2ccc(OCC(=O)NCC(=O)Nc3ccc(F)c(F)c3F)cc2)cc1	inconclusive: 36.4%
CN1CCN(C(=O)c2ccc(-c3ccccc3)cc2)CC1	inconclusive: 34%
Cc1nc(C)c(-c2ccc(SCC(=O)Nc3cccc(Cl)c3)nn2)s1	inconclusive: 22.9%
COc1cccc(-c2cc3nc4c(c(N5CCC6(CC5)OCCO6)n3n2)CCC4)c1	inconclusive: 36%
N#C[C@@H]1[C@@H](c2ccccc2-c2cccc(F)c2)[C@@H](CO)N1C(=O)C1CCC1	active: 29.2%

SMILES	CPE inhibition
O=C(COC(=O)CCN1C(=O)C2CC=CCC2C1=O)Nc1ccc(Cl)cc1F (stereo not drawn)	inconclusive: 44.9%
Cn1c(C(=O)c2ccccc2)nc2ccccc21	inconclusive: 31.3%
C[C@@H]1CN([C@H](C)CO)C(=O)c2cc(NC(=O)Nc3ccccc3)ccc2O[C@@H](C)CCCCO[C@H]1CN(C)C(=O)c1ccccc1	inconclusive: 27%
COc1cc(-c2noc(CCC(=O)NC3CCCC3)n2)cc(OC)c1OC	inconclusive: 26.7%
Cc1cc(C)nc(SCC(=O)N/N=C/c2cccnc2)n1	inconclusive: 30.9%
C[C@@H]1CN([C@@H](C)CO)C(=O)Cc2cc(NC(=O)Nc3cccc4ccccc34)ccc2O[C@@H]1CN(C)Cc1ccc(C(F)(F)F)cc1	inconclusive: 30.8%
O=C(C[C@@H]1C[C@@H]2c3cc(NC(=O)c4ccc5c(c4)OCO5)ccc3O[C@@H]2[C@@H](CO)O1)NC1CCCC1	active: 33.5%
Cc1ccc(S(=O)(=O)Nc2ccc3c(c2)CC(=O)N([C@@H](C)CO)C[C@@H](C)[C@H](CN(C)S(=O)(=O)c2ccc(Cl)cc2)O3)cc1	active: 48.6%
Cc1nn(C)cc1/C=N\NC(=O)c1ccc(Cn2cc(Cl)cn2)cc1	inconclusive: 20.8%
C[C@H](O)C#Cc1ccc2c(c1)O[C@@H](CN(C)Cc1ccccc1)[C@H](C)CN([C@H](C)CO)S2(=O)=O	inactive: 6.56%
CC(C)CNc1ccc2c(c1)OC[C@H](CC(C)C)NS2(=O)=O	inconclusive: 65.8%
COc1cccc(-n2cnnc2SC(C)C(=O)NC2CCCC2)c1 (stereo not drawn)	inconclusive: 38.3%
Cc1ccc(S(=O)(=O)Nc2ccc3c(c2)C(=O)N([C@H](C)CO)C[C@@H](C)[C@@H](CN(C)C)OCCCC[C@H](C)O3)cc1	inconclusive: 77.6%
CC(C)(C)c1ccc(C(=O)N2CCC2(C)C(=O)Nc2cccc3ncccc23)cc1 (stereo not drawn)	inconclusive: 24.4%
COc1ccc(C(O)c2nc(-c3cccs3)cs2)cc1 (stereo not drawn)	inconclusive: 31.8%
COc1ccc(C(=O)CCC(=O)NCc2cc(OC)cc(OC)c2)cc1	active: 34.8%
CN(C)c1ccc(S(=O)(=O)NCC(=O)N2CCN(S(=O)(=O)c3cccc(F)c3)CC2)cc1[N+](=O)[O-]	inactive: 16.5%
COC(=O)C1=C(C)NC(C)=C(C(=O)OC)C1C(=O)OC(C)C(=O)c1ccccc1 (stereo not drawn)	inconclusive: 27.1%
CCCNC(=O)N(C)C[C@H]1Oc2cc(C#Cc3cccc(F)c3)ccc2S(=O)(=O)N([C@@H](C)CO)C[C@@H]1C	inconclusive: 29.8%
CN1C(=O)c2cc(NC(=O)C3CCOCC3)ccc2OC[C@@H]2O[C@@H](CC(=O)NC3CCCC3)CC[C@@H]21	inconclusive: 21.2%
COC(=O)C[C@H]1CC[C@@H]2[C@@H](COc3ccc(NC(=O)Nc4ccccc4C)cc3C(=O)N2C)O1	inactive: -2.17%
O=C(NC1CC1)C1=C[C@@H](C2CCCCC2)C[C@@H](OCCCCO)O1	active: 39.1%
O=C(NCc1cc(Cl)cc(Cl)c1)c1ccc2nc(COCCO)[nH]c2c1	inconclusive: 23.4%
C[C@H](CO)N1C[C@H](C)[C@@H](CN(C)CC2CCOCC2)Oc2ncc(C3=CCCCC3)cc2C1=O	inconclusive: 59.6%
CCOc1ccc(C(=O)CN2C(=O)NC3(CCCc4ccccc43)C2=O)cc1 (stereo not drawn)	inconclusive: 25.3%

Quoted at random: four compounds from above.
SMILES	CPE inhibition
C[C@H](CO)N1C[C@H](C)[C@@H](CN(C)CC2CCOCC2)Oc2ncc(C3=CCCCC3)cc2C1=O	inconclusive: 59.6%
O=C(NC1CC1)C1=C[C@@H](C2CCCCC2)C[C@@H](OCCCCO)O1	active: 39.1%
COC(=O)C[C@H]1CC[C@@H]2[C@@H](COc3ccc(NC(=O)Nc4ccccc4C)cc3C(=O)N2C)O1	inactive: -2.17%
O=C(COC(=O)CCN1C(=O)C2CC=CCC2C1=O)Nc1ccc(Cl)cc1F (stereo not drawn)	inconclusive: 44.9%

(continued)

SMILES	CPE inhibition
C[C@@H]1CN([C@H](C)CO)C(=O)c2cc(NC(=O)Nc3ccc(C(F)(F)F)cc3)ccc2O[C@@H](C)CCCCO[C@@H]1CN(C)C(=O)Cc1ccccc1	active: 81.9%
COc1ccc(NC(=O)Nc2cccc3c2O[C@@H](CN(C)S(=O)(=O)c2cn(C)cn2)[C@H](C)CN([C@@H](C)CO)C3=O)cc1	inconclusive: 43.5%
COc1cc(C(F)(F)F)ccc1C(=O)NCCc1ccco1	inconclusive: 37.6%
CC(=O)Cc1cc(=O)c2c(C)cc(O)c(C3OC(CO)C(O)C(O)C3O)c2o1 (stereo not drawn)	inconclusive: 79.2%
O=C(NCc1ccccc1F)C1CCCN1C(=O)Nc1ccc(F)cc1 (stereo not drawn)	inconclusive: 37.1%
O=C(CN1CCOCC1)N1CC[C@H]2[C@H](CO)Nc3ccc(-c4ccc(F)cc4)cc3[C@H]21	inactive: -11.5%
C[C@@H]1CN([C@H](C)CO)C(=O)Cc2cc(NS(=O)(=O)c3ccccc3)ccc2O[C@H]1CN(C)S(=O)(=O)c1cn(C)cn1	inconclusive: 55.6%
OCC1OC(C(N=Nc2ccccc2)=NNc2ccccc2)C(O)C1O (stereo not drawn)	inconclusive: 24.6%
CCCCC(=O)N(CCC)CCC	inconclusive: 34.6%
COc1ccc(CN(C)C[C@@H]2OCCCC[C@H](C)Oc3ccc(NC(=O)Nc4ccccc4)cc3C(=O)N([C@H](C)CO)C[C@H]2C)cc1	active: 38.6%
COc1cc2c(oc(=O)c3cc(C)cc(OC)c32)c2c(C3OC(C)C(O)C(C)(O)C3O)ccc(O)c12 (stereo not drawn)	inactive: -3.41%
N=C1/C(=C\c2ccc(-c3cccc(Cl)c3)o2)C(=O)N=C2SC=C(c3ccccc3)N12	active: 67%
O=C(O)c1ccc(Sc2ccccn2)c([N+](=O)[O-])c1	inactive: 4.66%
CCOc1ccc(-n2c(C)nc3cc(C(=O)NCC4CCCO4)ccc32)cc1 (stereo not drawn)	inconclusive: 61.8%
CC1CCN(C(=O)CSc2nnc(-c3cccnc3)n2C2CCCCC2)CC1	inconclusive: 30.2%
COc1cccc(-c2csc(N3CCN(C(=O)Nc4ccccc4OC)CC3)n2)c1	inactive: 3.14%
C[C@H](CO)N1C[C@H](C)[C@H](CN(C)S(=O)(=O)c2ccc(F)cc2)Oc2ccc(NC(=O)NC3CCCCC3)cc2C1=O	inconclusive: 26.8%
O=C(c1cnccn1)N1CC(=O)N2[C@H](CO)[C@H](c3ccc(-c4cccc(F)c4)cc3)[C@H]2C1	inconclusive: 23.8%
COc1ccccc1NC(=O)N[C@H]1C=C[C@H](CC(=O)N[C@@H](C)c2ccccc2)O[C@H]1CO	inactive: 4.39%
N#Cc1cc2cc3c(cc2nc1Cl)OCCO3	active: 40.7%
COc1ccc(COc2cc(-c3cccc(OC)c3)nc3ccc(NC(=O)c4ccc(Cl)cc4)cc23)cc1	inconclusive: 31.1%
CCOc1ccc(NC(=O)CSc2nc3ccsc3c(=O)n2CCCCC(=O)O)cc1	inactive: 0.651%
COc1ccc(CN(C)C[C@H]2OCCCC[C@H](C)Oc3ccc(N(C)C)cc3C(=O)N([C@H](C)CO)C[C@@H]2C)cc1	inconclusive: 33.9%
